Measured values: patent US20200308162A1, “DRUGS AND COMPOSITIONS FOR OCULAR DELIVERY” (Graybug Vision, Inc., priority 2017, published 2020)
Some entries share one result that the patent states for a list of compounds. For some assays here: At least one structure is not confirmed: it was looked up by name or label, or the drawing left a doubt.

Assays:
[1] = Drug release kinetics of Timolol and ethacrynic acid prodrugs from polymer microparticles; type: physicochemical; details: microparticles of different polymer blends with 1% PEG-PLGA; FIG. 8 and FIG. 9
Description: The effect of polymer composition including monomer ratio and molecular weight, polymer end-groups (ester or acid), inherent viscosity and polymer blend ratios on particle degradation and drug release kinetics of Timolol-O-ethyl fumurate (17) was evaluated and is illustrated in FIG. 5. The rate of particle degradation was slowed and drug release was prolonged when the mole % of DL-lactide over glycolide was increased. By incorporating polymers with different monomer ratios (i.e., PLA, PLGA8515, PLGA525, PLGA5050 wherein 8515 refers to 85% DL-lactide and 15% glycolide) into the particles, it is possible to fine-tune the degradation rate of the particles to achieve a linear rate of drug release from the particles to minimize burst or lag and to extend the duration of release. […] The 78/22(PLA 5A/PLGA8515 4.5A) and 65/20/15(PLA 4A/PLGA6515 4.5A/PLGA5050 4A) polymer blends generated ideal particles for a 3-6 month linear release formulation. […] The rate of release was independent of the salt form. […] Thus, release rate is not solely dictated by the physicochemical properties of the linker, but rather must be attributed to a combination of parameters that may include linker type and site of linker conjugation.
FIG. 6 illustrates the release kinetics of ethacrynic acid-PLA(n=4)-ethyl ester (1) from PLGA microparticles. The drug was released over a period of approximately 66 days. […]

[2] = In vitro drug release kinetics of Timolol prodrug microparticles in PBS and 1% Tween 20 (pH 7.4) at 37° C.; type: physicochemical; details: FIG. 17-20
Description: In vitro drug release kinetics were evaluated in a release medium composed of PBS and 1% Tween 20 (pH 7.4). Briefly, 10 mg of particles was suspended in 4 mL of the release medium The particle suspension was incubated on an orbital shaker at 150 rpm at 37° C. At various time points, 3 mL of release media was collected, and the suspension was replenished with 3 mL of fresh release media. Collected release samples were frozen and stored at −80° C. until analysis for drug content. The collected samples were filtered through a 0.2 μm syringe filter and analyzed by RP-HPLC. FIG. 17-FIG. 22 illustrate the total and parent Timolol release profile for the microparticles encapsulating bis-prodrugs of Timolol of Table 11.

Row | Compound | period over which the drug was released from a number of formulations [1] | duration of release of the total prodrug, intermediates and parent [2]
1 | C=C(CC)C(=O)c1ccc(OCC(=O)O[C@@H](C)C(=O)O[C@@H](C)C(=O)O[C@@H](C)C(=O)O[C@@H](C)C(=O)OCC)c(Cl)c1Cl [Compound 1, (S)-2-{2-[2,3-Dichloro-4-(2-methylene-butyryl)-phenoxy]-acetoxy}-propionic acid (S)-1-[(S)-1-((S)-1-ethoxycarbonyl-ethoxycarbonyl)-ethoxycarbonyl]-ethyl ester] | greater than 90 days | –
2 | C=C(CC)C(=O)c1ccc(OCC(=O)O[C@@H](C)C(=O)O[C@@H](C)C(=O)O[C@@H](C)C(=O)O[C@@H](C)C(=O)O[C@@H](C)C(=O)O[C@@H](C)C(=O)OCC)c(Cl)c1Cl [Compound 25, (S)-2-((S)-2-[(S)-2-((S)-2-(2-[2,3-Dichloro-4-(2-methylene-butyryl)-phenoxy]-acetoxy)-propionyloxy)-propionyloxy]-propionyloxy)-propionic acid (S)-1-((S)-1-ethoxycarbonyl-ethoxycarbonyl)-ethyl ester] | greater than 90 days | –
3 | CC(=O)OC(C)C(=O)OC(C)C(=O)OC(C)C(=O)OC(C)C(=O)N(C[C@@H](COc1nsnc1N1CCOCC1)OC(=O)C(C)OC(=O)C(C)OC(C)=O)C(C)(C)C (some centres unmarked) [Compound 55, Timolol-Bis-N-Acetyl-PLA (n = 4)-O-Acetyl PLA (n = 2)] | – | > 120 days
4 | CC(=O)OC(C)C(=O)OC(C)C(=O)OC(C)C(=O)OC(C)C(=O)O[C@H](COc1nsnc1N1CCOCC1)CN(C(=O)C(C)OC(=O)C(C)OC(C)=O)C(C)(C)C (some centres unmarked) [Compound 56, Timolol-Bis-N-Acetyl-PLA (n = 2)-O-Acetyl-PLA (n = 4)] | – | > 120 days
5 | Timolol-Bis-Acetyl PLA (n = 4) [Compound 54] | – | > 120 days
